Experimental data from paper PMC5192218.
No constants are given. Whether binding was seen depends on the method and setting. In cells and extracts the contact can be indirect. Some results given as binding are weak or reduced against the parent protein; the word gives no strength.

Chains of the proteins cited; added tags and fusions are not shown.
UniProt Q9QUI0: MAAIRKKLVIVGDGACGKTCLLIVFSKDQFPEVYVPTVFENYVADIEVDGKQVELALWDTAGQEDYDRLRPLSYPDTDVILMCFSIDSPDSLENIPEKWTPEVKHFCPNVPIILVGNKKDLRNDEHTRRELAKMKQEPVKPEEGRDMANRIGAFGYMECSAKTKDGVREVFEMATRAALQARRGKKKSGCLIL

Target: T1, p120-catenin (endogenous, co-immunoprecipitation with RhoA) (UniProt P30999)
T1 sequence: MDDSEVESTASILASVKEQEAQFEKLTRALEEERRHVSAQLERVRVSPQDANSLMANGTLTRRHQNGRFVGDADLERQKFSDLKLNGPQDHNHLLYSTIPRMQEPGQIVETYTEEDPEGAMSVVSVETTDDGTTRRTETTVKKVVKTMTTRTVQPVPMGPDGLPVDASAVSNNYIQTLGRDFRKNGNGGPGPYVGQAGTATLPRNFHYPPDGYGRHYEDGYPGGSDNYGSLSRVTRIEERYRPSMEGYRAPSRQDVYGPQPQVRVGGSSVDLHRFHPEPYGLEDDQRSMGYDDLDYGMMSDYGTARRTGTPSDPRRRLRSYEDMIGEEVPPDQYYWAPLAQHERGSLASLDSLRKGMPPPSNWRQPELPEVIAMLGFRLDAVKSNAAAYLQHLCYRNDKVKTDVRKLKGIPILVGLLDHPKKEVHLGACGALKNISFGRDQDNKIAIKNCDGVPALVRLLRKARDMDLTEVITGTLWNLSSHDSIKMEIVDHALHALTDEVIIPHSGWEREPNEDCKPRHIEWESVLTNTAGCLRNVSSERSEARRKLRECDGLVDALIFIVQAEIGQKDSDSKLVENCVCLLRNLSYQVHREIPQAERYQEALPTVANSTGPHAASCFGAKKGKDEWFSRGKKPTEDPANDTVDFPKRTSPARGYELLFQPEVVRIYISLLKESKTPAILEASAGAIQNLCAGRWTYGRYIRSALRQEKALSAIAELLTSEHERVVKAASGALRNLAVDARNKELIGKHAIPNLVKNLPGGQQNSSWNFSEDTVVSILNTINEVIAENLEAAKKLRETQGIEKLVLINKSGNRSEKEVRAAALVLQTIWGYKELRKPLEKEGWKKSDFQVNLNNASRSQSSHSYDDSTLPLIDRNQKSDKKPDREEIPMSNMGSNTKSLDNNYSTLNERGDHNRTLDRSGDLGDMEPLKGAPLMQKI
Assay: co-IP; co-immunoprecipitation of endogenous p120 and RhoA, detected by western blotting; cells and precipitating antibody not stated

Substance: RhoA (endogenous, co-immunoprecipitation with p120) (from UniProt Q9QUI0 1-193)
- binding: binds
